Some of the results follow. The main result of the screen is listed elsewhere. These columns were measured beside it and carry no call. Most of these compounds were active or inconclusive in the main read-out, so they are no random draw. The note in brackets gives the kind of curve behind each potency; many fits are weak.
Test: qHTS Assay for Lipid Storage Modulators in Drosophila S3 Cells;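 for cell number change: cells counted by Cell Tracker Red CMTPX staining in the red channel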
Details: BODIPY lipid droplet fluorescence, 18-24 h; for cell number change: measured here: cell count max response, cells fed with added oleic acid
Outline: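 Drosophila S3 cells loaded with oleic acid (400 uM, as added) and compounds at several concentrations; lipid droplets imaged by 488-nm laser-scanning cytometry, 500–530 nm intensity and object ratio to cell channel. Percent activity normalized to 20 uM Triacsin C.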

[1] = measured here: lipid fluorescence (Fed channel) AC50, cells fed with added oleic acid
[2] = measured here: cell number channel AC50, cells fed with added oleic acid

Compound	cell number change	AC50 [1]	AC50 [2]
CC(=O)c1ccc(NC(=O)/C=C/c2ccc(C)cc2)cc1	7.79%	10.3 µM [falling, partial curve]	–
CC(=O)Nc1cccc(/C(C)=N/Nc2nc3ccccc3s2)c1	–	–	6.51 µM [rising, single point]
CCOP(=O)(OCC)C(Nc1ccccc1)c1ccccc1C(F)(F)F (stereo not given)	5.98%	–	–
CC(=O)Nc1ccc(/C=N\NC(=O)CNS(=O)(=O)c2ccc([N+](=O)[O-])cc2)cc1	4.51%	20.6 µM [rising, single point]	–
Cc1oc(-c2ccccc2F)nc1CN1CCC(C(=O)NC2CCCc3ccccc32)CC1 (stereo not given)	9.54%	–	–
CCOc1cc(C(=O)NC(C)Cc2cccs2)cc(OCC)c1OCC (stereo not given)	90.9%	–	29.1 µM [rising, single point]
Cc1c2cnn(CC(=O)NCCCN3CCCCC3C)c(=O)c2c(C)n1Cc1ccccc1 (stereo not given)	30.3%	–	–
O=C(c1sc2ccccc2c1Cl)N(Cc1ccco1)C1CCS(=O)(=O)C1 (stereo not given)	93.7%	–	18.4 µM [rising, single point]
CCN(c1ccccc1)S(=O)(=O)c1ccc(C(=O)N(C)CCc2ccc(OC)c(OC)c2)cc1	17.3%	14.6 µM [falling, partial curve]	–
CCC(Sc1nc(N)cc(=O)[nH]1)C(=O)NC(C(=O)OC)c1ccccc1 (stereo not given)	–	0.58 µM [falling, single point]	–
Cc1cc(NC(=O)c2cc3ccccc3o2)cc(C)c1OCC(=O)N1CCOCC1	–	0.58 µM [rising, single point]	–
Nc1cc(C(=O)O)c(N)c2c1C(=O)c1ccccc1C2=O	1.91%	11.6 µM [rising, partial curve]	–
Cc1nc2ccccc2c2oc(C(=O)N3CCC(C)CC3)cc12	6.27%	29.1 µM [falling, single point]	–
COc1cccc(C(=O)N2CCN(S(=O)(=O)Cc3ccccc3)CC2)c1OC	-19%	9.2 µM [falling, partial curve]	–
COc1ccc(N(CC(=O)NC2CCCCC2C)S(=O)(=O)c2c(C)nn(C)c2C)cc1 (stereo not given)	2.59%	–	–
CC(C)(C)c1ccc(C(=O)CC(Sc2ccc(Cl)cc2)C(=O)O)cc1 (stereo not given)	-52.4%	0.00461 µM [falling, full curve, poor fit]	0.058 µM [falling, full curve, poor fit]
COc1ccc(CCN(C)C(=S)Nc2cccc(C)c2)cc1OC	23.9%	–	–
COc1cccc(OC)c1C(=O)NC(=S)NCc1ccccc1	20.7%	–	6.51 µM [rising, single point]
CCCN(CCC)C(=O)CCS(=O)(=O)c1cccc2nsnc12	-14.6%	0.651 µM [falling, single point]	–
COc1ccc(NS(=O)(=O)c2cc(NC(=O)/C=C/c3cccs3)ccc2N2CCOCC2)cc1	-3.45%	0.058 µM [rising, full curve, poor fit]	–

Part of the list above, set out differently:
Compound | cell number change | AC50 [1] | AC50 [2]
CC(=O)Nc1ccc(/C=N\NC(=O)CNS(=O)(=O)c2ccc([N+](=O)[O-])cc2)cc1 | 4.51% | 20.6 µM [rising, single point] | –
Cc1oc(-c2ccccc2F)nc1CN1CCC(C(=O)NC2CCCc3ccccc32)CC1 (stereo not given) | 9.54% | – | –
Cc1c2cnn(CC(=O)NCCCN3CCCCC3C)c(=O)c2c(C)n1Cc1ccccc1 (stereo not given) | 30.3% | – | –
CCN(c1ccccc1)S(=O)(=O)c1ccc(C(=O)N(C)CCc2ccc(OC)c(OC)c2)cc1 | 17.3% | 14.6 µM [falling, partial curve] | –
CCC(Sc1nc(N)cc(=O)[nH]1)C(=O)NC(C(=O)OC)c1ccccc1 (stereo not given) | – | 0.58 µM [falling, single point] | –
Nc1cc(C(=O)O)c(N)c2c1C(=O)c1ccccc1C2=O | 1.91% | 11.6 µM [rising, partial curve] | –
Cc1nc2ccccc2c2oc(C(=O)N3CCC(C)CC3)cc12 | 6.27% | 29.1 µM [falling, single point] | –
COc1cccc(C(=O)N2CCN(S(=O)(=O)Cc3ccccc3)CC2)c1OC | -19% | 9.2 µM [falling, partial curve] | –
COc1ccc(N(CC(=O)NC2CCCCC2C)S(=O)(=O)c2c(C)nn(C)c2C)cc1 (stereo not given) | 2.59% | – | –
COc1cccc(OC)c1C(=O)NC(=S)NCc1ccccc1 | 20.7% | – | 6.51 µM [rising, single point]
COc1ccc(NS(=O)(=O)c2cc(NC(=O)/C=C/c3cccs3)ccc2N2CCOCC2)cc1 | -3.45% | 0.058 µM [rising, full curve, poor fit] | –

Additional entries follow.

Compound	cell number change	AC50 [1]	AC50 [2]
COc1ccc(CC(=O)Nc2ccc(OC)c(NC(=O)c3ccco3)c2)cc1	118%	0.58 µM [rising, single point]	0.082 µM [rising, single point]
Cc1ccccc1-c1nnc(SCC(=O)NCc2ccc3c(c2)OCO3)n1C	59.5%	–	16.4 µM [rising, partial curve]
CCOc1ccc(NC(=O)NNC(=O)c2ccc3ccccc3c2O)cc1	–	8.91 µM [rising, full curve, poor fit]	–
O=C(NC(=S)NNC(=O)c1ccccc1O)c1ccc(F)cc1	-20.8%	29.1 µM [falling, single point]	–
CC(C)N(C(=O)COC(=O)c1cncc(Br)c1)C(C)C	-32.9%	–	–
COc1ccc(Nc2nc(N3CCCCC3)nc3ccccc23)c(OC)c1	-57.3%	1.3 µM [rising, partial curve]	–
CC(=O)Nc1ccc(/C=C/c2nc(-c3ccccc3O)n[nH]2)cc1	-57.5%	18.4 µM [falling, single point]	20.6 µM [falling, single point]
COc1cc2c(cc1OC)-c1nnc(-c3ccco3)n1C1(CCCC1)C2	-23.6%	8.2 µM [falling, partial curve, poor fit]	–
Cc1cc(C)n2nc[n+](C)c2n1	45.4%	–	–
C=CCn1cccc(C(=O)Nc2ccc(OCC)cc2)c1=O	–	6.51 µM [rising, single point]	3.66 µM [rising, partial curve]
CCOC(=O)c1sc(-c2ccc(OC)cc2)cc1NC(C)=O	-44.5%	–	18.4 µM [falling, single point]
CCC(=O)OC1CC(C)N(C(=O)c2ccccc2)c2ccc(C)cc21 (stereo not given)	–	–	0.231 µM [rising, partial curve, poor fit]
O=C(CCl)N1CCN2C(=O)c3ccccc3C12c1ccc(Cl)cc1 (stereo not given)	-58%	6.51 µM [falling, single point]	6.51 µM [falling, partial curve, poor fit]
O=c1c2ccccc2ncn1CCOCCOc1ccc([N+](=O)[O-])cc1	–	1.84 µM [falling, partial curve]	4.11 µM [falling, single point]
Cc1ccc(NC(=S)NC(=O)Cc2ccccc2)c(O)c1	–	3.66 µM [rising, full curve]	–
Cc1ccccc1-n1nc(SCC(=O)O)sc1=S	-33.3%	–	–
CCn1c(CNC(=O)c2cccnc2)cc2ccccc21	-6.04%	6.51 µM [rising, single point]	–
CCCCC(NC(=O)Cc1c(C)c2cc3c4c(oc3cc2oc1=O)CCCC4)C(=O)O (stereo not given)	3.78%	6.51 µM [falling, partial curve, poor fit]	–
CC1CCCCC1NC(=S)Nc1ccc(Cl)cc1Cl (stereo not given)	-32.3%	–	–
CCOc1ccc2c(c1)OC(c1ccccc1)(C(F)(F)F)NC2=O (stereo not given)	24.3%	0.58 µM [rising, single point]	0.116 µM [rising, full curve, poor fit]

Compound	cell number change	AC50 [1]	AC50 [2]
CCOc1ccccc1NC(=O)C(CC)Sc1nc2ccsc2c(=O)n1CCC(=O)O (stereo not given)	-38.4%	23.1 µM [falling, partial curve]	20.6 µM [falling, single point]
CCOc1ccc(C(N)=O)cc1OC	-61.1%	–	32.6 µM [falling, single point]
COc1ccc(-c2nc3ccccn3c2NC2CCCCC2)cc1SC1CCCCC1	-62%	29.1 µM [falling, single point]	23.1 µM [falling, single point]
FC(F)Sc1ccc(NC(=S)NCC2CCCCC2)cc1	-38%	20.6 µM [falling, single point]	1.64 µM [falling, partial curve]
O=C(C1CCCCC1)N(Cc1ccccc1)c1ccccn1	8.43%	16.4 µM [rising, single point]	–
CC1(C)CC(NC(=O)c2cccc(S(=O)(=O)N(Cc3ccccc3)c3ccccc3)c2)CC(C)(C)N1	0.776%	0.58 µM [falling, partial curve]	–
CNCc1ccccc1Sc1cccc(O)c1	2.02%	0.082 µM [falling, full curve, poor fit]	0.116 µM [falling, partial curve, poor fit]
CCCCNS(=O)(=O)c1ccc2nc(SCC(=O)Nc3cc(C)cc(C)c3)[nH]c2c1	17.9%	0.116 µM [falling, partial curve, poor fit]	–
CCOc1ccc2nc(SC(C)C(N)=O)[nH]c2c1 (stereo not given)	–	7.31 µM [falling, partial curve, poor fit]	–
CCCCCCc1c(O)nc(SCC(=O)O)[nH]c1=O	14.6%	6.51 µM [rising, single point]	6.51 µM [rising, single point]
O=C(NC12CC3CC(CC(C3)C1)C2)c1cc2nc(-c3ccco3)cc(C(F)(F)F)n2n1	68.6%	–	18.4 µM [rising, partial curve]
CN1/C(=C\C=N\NC(=O)c2ccccc2Br)C(C)(C)c2ccccc21	1.19%	2.06 µM [rising, partial curve]	6.51 µM [falling, partial curve, poor fit]
Cc1c(-n2c(=O)n(Cc3ccccc3)c(=O)c3[nH]cnc32)cccc1S(C)=O (stereo not given)	-19.4%	0.58 µM [falling, single point]	–
O=C1C2C3C=CC(C2C(=O)N1CCO)C1C(=O)N(CCO)C(=O)C31 (stereo not given)	-16.7%	0.00651 µM [falling, full curve, poor fit]	–
CC(C)c1ccc(S(=O)(=O)N2CCC3(CC2)OCCO3)cc1	-11.6%	29.1 µM [falling, single point]	–
CCOC(=O)c1c(C=O)c(C)n(Cc2ccc(C)cc2)c1C	-23.5%	0.92 µM [rising, full curve, poor fit]	–
Cc1c(NC(=S)N/N=C/c2ccc([N+](=O)[O-])cc2O)c(=O)n(-c2ccccc2)n1C	51.6%	–	7.31 µM [rising, partial curve]
Cc1ccc(NC(=O)CSc2nnc(-c3ccccc3C)o2)cc1C	31.5%	3.26 µM [rising, single point]	5.8 µM [rising, full curve, poor fit]
CC(=O)Oc1ccc(/C=C2/CCc3ccccc3C2=O)cc1	-16.6%	–	–
CCn1c(=O)c(C(=O)CN2CCN(S(=O)(=O)c3ccccc3)CC2)c(N)n(Cc2ccccc2)c1=O	2.37%	–	6.51 µM [rising, single point]
